In publication PMC2568865:
Results are given in words; binding and its absence hold for the method and conditions named. Some results given as binding are weak or reduced against the parent protein; the word gives no strength. Where a sequence is shown, tags or fusion partners need not be part of it.

Target: T1, GST-tagged PP5 (human) (UniProt P53041)
T1 sequence: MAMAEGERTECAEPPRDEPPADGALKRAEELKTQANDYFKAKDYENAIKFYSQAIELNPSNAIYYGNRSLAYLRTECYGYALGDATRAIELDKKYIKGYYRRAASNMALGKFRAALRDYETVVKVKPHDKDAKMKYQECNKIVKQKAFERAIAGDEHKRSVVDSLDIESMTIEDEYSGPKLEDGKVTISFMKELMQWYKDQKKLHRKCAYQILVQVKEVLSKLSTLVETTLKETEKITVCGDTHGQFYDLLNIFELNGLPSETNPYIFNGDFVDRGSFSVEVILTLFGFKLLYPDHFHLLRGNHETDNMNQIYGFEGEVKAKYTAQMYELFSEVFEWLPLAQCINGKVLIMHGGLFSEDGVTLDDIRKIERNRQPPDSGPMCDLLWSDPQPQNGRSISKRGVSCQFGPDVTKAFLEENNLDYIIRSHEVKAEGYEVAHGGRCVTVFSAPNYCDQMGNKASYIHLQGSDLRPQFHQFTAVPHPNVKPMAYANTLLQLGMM
Experiment: pull-down; GST-PP5 on glutathione Sepharose with Cdc37 or CK2-phosphorylated Cdc37, without Hsp90α; 4°C, 2 hr; 50 mM HEPES pH 7.5, 150 mM NaCl, 0.1% NP40, BSA; both purified

binding: binds weakly
B1: pSer13-Cdc37 (E. coli-expressed Cdc37 phosphorylated in vitro with CK2) (protein, UniProt Q16543 1-378)
chain: MVDYSVWDHIEVSDDEDETHPNIDTASLFRWRHQARVERMEQFQKEKEELDRGCRECKRKVAECQRKLKELEVAEGGKAELERLQAEAQQLRKEERSWEQKLEEMRKKEKSMPWNVDTLSKDGFSKSMVNTKPEKTEEDSEEVREQKHKTFVEKYEKQIKHFGMLRRWDDSQKYLSDNVHLVCEETANYLVIWCIDLEVEEKCALMEQVAHQTIVMQFILELAKSLKVDPRACFRQFFTKIKTADRQYMEGFNDELEAFKERVRGRAKLRIEKAMKEYEEEERKKRLGPGGLDPVEVYESLPEELQKCFDVKDVQMLQDAISKMDPTDAKYHMQRCIDSGLWVPNSKASEAKEGEEAGPGDPLLEAVPKTGDEKDVSV
modifications: phosphoserine at 13
